Here are results for 60 compounds from PubChem BioAssay AID2685 (National Center for Advancing Translational Sciences (NCATS), 2010).

Structures are written as SMILES. Some of the results follow. Shown are side measurements of this screen, not its main read-out; they come without a call. Compounds called inactive in the main read-out are mostly missing here. Words in brackets tell the shape of the fitted curve; partial curves, single points and poor fits give uncertain potencies.

This assay can be described thus: qHTS Assay for Lipid Storage Modulators in Drosophila S3 Cells.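 As to cell number change: cells counted by Cell Tracker Red CMTPX staining in the red channel.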 The conditions noted are these: BODIPY lipid droplet fluorescence, 18-24 h; for cell number change: measured here: cell count max response, cells fed with added oleic acid. In short, it runs like this:
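Drosophila S3 cells got compounds at several concentrations plus oleic acid (400 uM solution). Laser-scanning cytometry with 488 nm excitation read lipid droplets at 500-530 nm and cells at 575-640 nm. Percent activity was relative to 20 uM Triacsin C.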

Where [1] appears, read: measured here: lipid fluorescence (Fed channel) AC50, cells fed with added oleic acid.
Where [2] appears, read: measured here: cell number channel AC50, cells fed with added oleic acid.

With `CC(=O)N1CCN(Cc2nc3cc(NS(C)(=O)=O)ccc3n2C)CC1`, the cell number change was -3.57%. Moreover, the AC50 under setting [1] was 0.651 µM [falling, full curve].

As for `CC(C)CCNC(=O)NC(=O)Cn1cc(C(F)(F)F)ccc1=O`, the cell number change was determined as 7.64%. Also, the AC50 under setting [1] was 20.6 µM [falling, single point].

`COC(=O)c1cc(S(=O)(=O)C(C)C)c(S(C)=O)s1` (stereo not drawn): the cell number change is -52%.

Take `CCOC(=O)c1c(C)[nH]c(C(=O)CSc2ccc(Cl)cc2)c1C`: the cell number change is -36.2%. Also, under setting [2], the half-maximal activity concentration (AC50) is 32.6 µM [falling, single point]. Besides, under setting [1], the AC50 was 0.411 µM [rising, full curve].

Regarding `COc1cc(S(=O)(=O)Nc2ccc(C)cc2)ccc1NC(=O)c1ccncc1`, the cell number change was -13.5%. Besides, under setting [1], the concentration at half-maximal activity (AC50) is 18.4 µM [falling, single point].

Take `COc1ccc(S(=O)(=O)N2CCc3ccccc3C2)cc1OC`: the cell number change was 25%. For the same compound, under setting [1], the concentration at half-maximal activity (AC50) is 32.6 µM [rising, single point].

On to `Cc1cc(C)c(S(=O)(=O)N2CCOC2CNC(=O)C(=O)NCCN(C)C)c(C)c1` (stereo not drawn), for which the cell number change amounted to 8.11%.

`O=C(O)CCN1C(=O)c2ccccc2C1=O`: the cell number change is -121%. The AC50 under setting [2] is 16.4 µM [falling, partial curve]. Further, the AC50 under setting [1] is 0.651 µM [falling, full curve].

Regarding `Cc1ccc(S(=O)(=O)Nc2ccccc2C(O)c2ccccc2)cc1` (stereo not drawn), the cell number change was -30.3%. Further, under setting [2], the AC50 is 29.1 µM [falling, single point]. The concentration at half-maximal activity (AC50) under setting [1] is 29.1 µM [falling, single point].

As to `Cc1nc(C)c(C(=O)N/N=C/c2cn(C)c3ccccc23)s1`, the cell number change is -15%. Under setting [2], the AC50 is 1.84 µM [rising, partial curve]. Under setting [1], the AC50 was 1.64 µM [rising, partial curve].

For the compound `COC(=O)C1=CNC=C(C(=O)OC)C1c1ccccc1Cl`, the cell number change is 7.87%.

Turning to `Cc1cc(C)c2sc(N(CCCN(C)C)C(=O)c3ccc(S(=O)(=O)N4CCc5ccccc5C4)cc3)nc2c1`, the cell number change is -90%. Under setting [2], the AC50 was 6.51 µM [falling, full curve]. Under setting [1], the AC50 is 0.411 µM [falling, single point].

On to `COc1cc(-c2c(-c3cc(OC)c(OC)c(OC)c3)noc2C)ccc1F`, for which the cell number change was -5.99%. The AC50 under setting [1] is 8.2 µM [rising, partial curve].

`CC(=O)c1cc2c(cc1NC(=O)CN1CCC(Cc3ccccc3)CC1)OCO2`: the cell number change came to 17.6%. Moreover, under setting [1], the AC50 is 4.61 µM [rising, full curve].

Take `Cc1nc2ncnn2c(C)c1C/C=C/c1ccccc1`: the cell number change is 6.52%.

As for `CCN(CC)CCCN(Cc1cc2cc3c(cc2[nH]c1=O)OCO3)C(=S)Nc1ccc(OC)cc1`, the cell number change is 17.9%. Besides, under setting [1], the AC50 was 0.82 µM [rising, full curve, poor fit].

On to `CCC(C(=O)OCC(=O)NC(=O)c1ccccc1OC)c1ccccc1` (stereo not drawn), for which the cell number change was -9.08%.

With `O=C(Nc1ccccc1)NC1(C(=O)NCCCN2CCOCC2)CCCCC1`, the cell number change was -19.1%. The AC50 under setting [1] is 3.26 µM [falling, full curve].

Turning to `Cc1ccn2cc(C(=O)N3CCN(c4cnn(-c5ccccc5)c(=O)c4Cl)CC3)nc2c1`, the cell number change is 17.3%. Moreover, the AC50 under setting [1] was 1.46 µM [rising, partial curve].

Regarding `Cc1cc(Br)cn2ccnc12`, the cell number change was determined as 1.23%. In addition, the AC50 under setting [1] is 29.1 µM [rising, partial curve, poor fit].

Consider `COc1ccc(OC)c(S(=O)(=O)Nc2c(C)n(C)n(-c3ccccc3)c2=O)c1`, for which the cell number change is 15.4%.

On to `CN1N=C(C(=O)N2CCCC(N3CCN(c4ccc(F)cc4)CC3)C2)CCC1=O` (stereo not drawn), for which the cell number change was -8.99%. Besides, the half-maximal activity concentration (AC50) under setting [1] is 0.082 µM [rising, full curve, poor fit].

For `CCOC(=O)c1ccc(CSc2nnc(-c3ccncc3)n2N)cc1`, the cell number change came out at 40.2%. Further, the AC50 under setting [2] was 1.46 µM [rising, full curve]. Moreover, the AC50 under setting [1] is 29.1 µM [falling, single point].

For `Cc1ccc2nc(SCC(=O)Nc3ccc(F)cc3F)[nH]c2c1`, the cell number change is -46.1%. For the same compound, under setting [2], the AC50 is 0.146 µM [falling, full curve, poor fit]. Also, under setting [1], the AC50 was 29.1 µM [falling, single point].

Take `CCc1ccc(NC(=O)c2cnn(-c3ccccc3)c2C)cc1`: the cell number change was found to be 9.86%. The AC50 under setting [1] is 0.82 µM [rising, full curve, poor fit].

In the case of `Cc1ccn(C(=O)c2cc3c(C)nn(-c4ccccc4)c3s2)n1`, the cell number change was -26.6%. Further, the AC50 under setting [2] was 0.0058 µM [falling, full curve, poor fit].

In the case of `Cc1[nH]nc(N=CC2=C(O)CC(C)(C)CC2=O)c1-c1ccc(Cl)cc1`, the cell number change is -118%. Further, the AC50 under setting [2] is 16.4 µM [falling, single point]. For the same compound, the AC50 under setting [1] is 29.1 µM [falling, single point].

Turning to `Cc1cccc(N2CCN(C(=O)C3CCC(=O)N(Cc4ccccc4F)C3)CC2)c1C` (stereo not drawn), the cell number change is -4.53%. Under setting [1], the AC50 was 14.6 µM [falling, single point].

Take `O=C(NNc1ccc(-c2csnn2)cc1)c1cc(Cl)cc(Cl)c1`: the cell number change is 4.15%. Moreover, under setting [1], the half-maximal activity concentration (AC50) was 2.59 µM [rising, single point].

For the compound `Cc1ccc2nc(N(CCCN(C)C)C(=O)c3ccc4c(c3)CCCC4)sc2c1`, the cell number change was -60.1%. Under setting [2], the AC50 was 18.4 µM [falling, single point].

Consider `O=C(COC(=O)c1nn(-c2ccccc2C(F)(F)F)cc1O)c1ccc(OC(F)F)cc1`, for which the cell number change came out at 170%.

Consider `CCn1cnc2c1c(=O)n(CC(=O)Nc1cc(C)on1)c(=O)n2Cc1ccccc1`, for which the cell number change is -11.2%.

With `O=C(Nc1cccc(O)c1)c1noc2c1CCc1ccccc1-2`, the cell number change is -71.4%. The AC50 under setting [2] was 29.1 µM [falling, single point]. Besides, under setting [1], the AC50 was 23.1 µM [falling, single point].

In the case of `COc1cc(NC(=S)NCCCN2CCOCC2)cc(OC)c1`, the cell number change is 4.24%. The AC50 under setting [1] is 3.26 µM [falling, full curve, poor fit].

For the compound `CC1CCCCC1NC(=O)C1CCN(c2c3c(nc4ncnn24)CCC3)CC1` (stereo not drawn), the AC50 under setting [1] was 6.51 µM [rising, single point].

As for `CCN(CC)C(=O)CSc1nc2ncc(Br)cc2[nH]1`, the cell number change turned out to be 0.148%.

Consider `Cc1nn(C(C)C(=O)NCc2cccs2)c(C)c1[N+](=O)[O-]` (stereo not drawn), for which the cell number change was -13.1%.

Turning to `O=C(NCc1cccc(Cl)c1)c1ccc(S(=O)(=O)Nc2cccc(C(F)(F)F)c2)cc1`, the cell number change was -39.5%. The AC50 under setting [2] is 0.82 µM [falling, partial curve, poor fit]. Also, the AC50 under setting [1] is 23.1 µM [falling, partial curve].

Consider `COc1ccc(C(CCN2CCCC2)c2c(O)cc(OC)cc2OC)cc1` (stereo not drawn), for which the cell number change was found to be 17.5%. Also, the AC50 under setting [1] is 10.3 µM [rising, partial curve, poor fit].

As for `CCOC(=O)COn1c(SCC(=O)OCC)nc2ccccc2c1=O`, the cell number change was 4.23%.

On to `COn1c(-c2ccc(Cl)cc2Cl)nc2ncccc21`, for which the AC50 under setting [1] is 6.51 µM [rising, single point].

As to `Cc1ccc(C(=O)OC(C)C(=O)NC2CCCCC2C)cc1S(=O)(=O)N1CCCCC1` (stereo not drawn), the cell number change worked out at 14.4%. Under setting [1], the AC50 is 2.91 µM [rising, single point].

As for `CC(=O)C1=C(O)C(=O)N(Cc2ccco2)C1c1ccc(F)cc1` (stereo not drawn), the cell number change was -223%. Besides, the AC50 under setting [2] was 29.1 µM [falling, partial curve]. Also, under setting [1], the concentration at half-maximal activity (AC50) was 29.1 µM [falling, partial curve].

Turning to `O=C(COC(=O)c1cccs1)c1ccc2c(c1)OCCO2`, the cell number change was -74.8%. Also, the AC50 under setting [2] was 29.1 µM [falling, single point]. The AC50 under setting [1] is 18.4 µM [falling, partial curve].

Regarding `O=c1c(Cl)c(Cl)cnn1-c1ccccc1`, the cell number change is -14.6%. Besides, the AC50 under setting [1] is 2.91 µM [falling, full curve].

For `COc1ccccc1N1CCN(C(=O)c2oc3ccccc3c2C)CC1`, the cell number change is -60.9%. The AC50 under setting [2] was 16.4 µM [falling, single point]. Moreover, the AC50 under setting [1] was 8.2 µM [rising, partial curve, poor fit].

As for `S=c1[nH]nc(-c2ccccn2)n1/N=C/c1ccc(-c2ccccc2Cl)o1`, the cell number change was -0.227%.

Turning to `O=C(CCC(=O)N1CCOc2ccc(Cl)cc21)NCCN1CCOCC1`, the cell number change came to 3.46%. Moreover, the AC50 under setting [1] was 29.1 µM [rising, single point].

On to `O=C(O)CCc1ccc(-c2ccc(F)cc2)n1NC(=O)c1ccco1`, for which the cell number change was -39.1%. Besides, under setting [1], the AC50 was 1.84 µM [falling, partial curve].

On to `Cc1cc(C(=O)N2CCCC(C(=O)c3ccc4ccccc4c3)C2)n(C)n1` (stereo not drawn), for which the AC50 under setting [1] is 20.6 µM [falling, single point].

As for `COc1ccc(C)cc1NC(=O)C(Sc1nnc(-c2cccs2)o1)c1ccccc1` (stereo not drawn), the AC50 under setting [1] was 0.184 µM [rising, full curve, poor fit].

Regarding `COC(=O)CCC(=O)OC1(C)C(=O)C=C2C=C(C3CC3)N(CCCOC(C)C)C=C2C1=O` (stereo not drawn), the cell number change was -38.6%. For the same compound, the AC50 under setting [2] is 2.06 µM [falling, full curve, poor fit].

For the compound `CC1CCCC(NC(=O)Cn2cc3c(n2)CCCCC3)C1C` (stereo not drawn), the cell number change was found to be 3.93%. Moreover, under setting [2], the AC50 is 0.00517 µM [falling, full curve, poor fit]. The AC50 under setting [1] was 0.146 µM [rising, full curve, poor fit].

For the compound `Cc1c(C(=O)N(C)C)sc2nc(-c3ccccn3)[nH]c(=O)c12`, the cell number change was 113%. For the same compound, the AC50 under setting [2] was 11.6 µM [rising, partial curve].

Take `CCOc1nc(N2CCOCC2)nc(N2CCOCC2)n1`: the cell number change is -25.5%. The AC50 under setting [1] was 0.259 µM [falling, full curve, poor fit].

As to `CC(C)(C)NC(=O)c1cc(NC(=O)c2ccco2)cc(NC(=O)c2ccco2)c1`, the cell number change worked out at 19.7%. Besides, the AC50 under setting [1] was 6.51 µM [rising, partial curve].

As for `CCCC(C)NC(=O)C1c2ccccc2Oc2ccccc21` (stereo not drawn), the cell number change is -10.4%. Besides, the AC50 under setting [1] is 0.517 µM [rising, full curve, poor fit].

On to `CCCOc1cccc(C2/C(=C(/O)c3ccccc3)C(=O)C(=O)N2CCN(C)C)c1` (stereo not drawn), for which the cell number change is -45.4%. Further, the AC50 under setting [2] is 2.91 µM [falling, full curve]. Under setting [1], the AC50 is 3.66 µM [falling, full curve].

For the compound `COc1ccc(COC(=O)Nc2c(SC)nsc2SC)cc1`, the cell number change came out at 8.47%.

As for `CCOc1ccc(CNC(=O)c2nnc(CS(=O)(=O)c3ccccc3)o2)cc1OC`, the cell number change is 24.8%. For the same compound, the AC50 under setting [1] was 29.1 µM [rising, single point].
